This passage reports binding results from patent US20170258870A1.

Sequences of proteins named here, by UniProt entry; tags and fusion partners are left off. A change or cut given only in a name is not applied to a line headed by its entry.
UniProt P04062: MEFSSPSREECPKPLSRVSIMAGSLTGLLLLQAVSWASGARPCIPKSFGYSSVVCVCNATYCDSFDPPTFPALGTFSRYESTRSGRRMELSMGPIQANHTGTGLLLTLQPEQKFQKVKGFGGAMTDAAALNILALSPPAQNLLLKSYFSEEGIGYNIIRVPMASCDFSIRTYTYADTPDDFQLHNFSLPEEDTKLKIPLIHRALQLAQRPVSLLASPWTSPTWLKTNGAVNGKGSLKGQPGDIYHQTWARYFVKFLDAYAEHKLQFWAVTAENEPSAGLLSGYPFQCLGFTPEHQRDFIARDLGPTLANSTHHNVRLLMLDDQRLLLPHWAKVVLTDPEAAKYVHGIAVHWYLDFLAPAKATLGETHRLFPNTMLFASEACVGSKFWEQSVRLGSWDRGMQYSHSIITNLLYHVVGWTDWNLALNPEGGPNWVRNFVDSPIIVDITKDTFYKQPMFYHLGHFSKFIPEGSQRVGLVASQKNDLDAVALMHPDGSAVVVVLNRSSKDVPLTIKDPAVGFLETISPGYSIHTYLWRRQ

For this experiment, the target named is recombinant GC (Cerezyme, Genzyme Therapeutics) (UniProt P04062). The experiment in a line: condition: 20 nmol peptide with 2 nmol protein in 250 µl; pulldown with biotinylated peptide on streptavidin beads, neutral pH, coomassie.

No constants are given. Whether binding was seen depends on the method and setting.

Regarding LREDDEAMDKAYQQKLFVTHTVDE (N-terminal Biotin-Ttds; C-terminus (acid)) [3xD Helix 5 peptide], the binding result is given as “no binding”.
